This passage reports binding signal (log2 enrichment (interaction score)) results from paper PMC8384837.

Conditions in all cases: yeast three-hybrid, YBZ-1, SC-Leu-His + 0.5 mM 3-AT, 4 days
Experiment [1] deals with T1, PUM1 PUF domain R6-CWG N1043C + Y1044W + Q1047G (Homo sapiens) (UniProt Q14671).
T1 sequence: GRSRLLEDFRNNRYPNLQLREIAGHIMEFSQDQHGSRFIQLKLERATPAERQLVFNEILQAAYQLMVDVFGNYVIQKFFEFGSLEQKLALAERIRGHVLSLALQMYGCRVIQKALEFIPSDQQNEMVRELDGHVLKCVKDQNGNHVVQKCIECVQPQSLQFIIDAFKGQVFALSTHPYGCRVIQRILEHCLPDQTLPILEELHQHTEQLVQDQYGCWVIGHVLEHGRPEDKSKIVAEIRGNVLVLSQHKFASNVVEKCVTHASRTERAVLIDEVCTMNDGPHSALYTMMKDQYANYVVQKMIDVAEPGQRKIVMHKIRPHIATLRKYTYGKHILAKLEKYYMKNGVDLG

Experiment [2] concerns the target T2, PUM1 PUF domain R6-EWL N1043E + Y1044W + Q1047L (UniProt Q14671).
T2 sequence: T1 sequence with C216E, G220L

In experiment [3] the target is T3, PUM1 PUF domain R6-FWG N1043F + Y1044W + Q1047G (Homo sapiens) (UniProt Q14671).
T3 sequence: T1 sequence with C216F

Experiment [4] deals with T4, PUM1 PUF domain R6-GWK N1043G + Y1044W + Q1047K (Homo sapiens) (UniProt Q14671).
T4 sequence: T1 sequence with C216G, G220K

Experiment [5] has as its target T5, PUM1 PUF domain R6-IYK N1043I + Q1047K (UniProt Q14671).
T5 sequence: T1 sequence with C216I, W217Y, G220K

Experiment [6] concerns the target T6, PUM1 PUF domain R6-KWA N1043K + Y1044W + Q1047A (UniProt Q14671).
T6 sequence: T1 sequence with C216K, G220A

In experiment [7] the target is T7, PUM1 PUF domain R6-KWG N1043K + Y1044W + Q1047G (Homo sapiens) (UniProt Q14671).
T7 sequence: T1 sequence with C216K

In experiment [8] the target is T8, PUM1 PUF domain R6-KWQ N1043K + Y1044W (UniProt Q14671).
T8 sequence: T1 sequence with C216K, G220Q

Experiment [9] addresses T9, PUM1 PUF domain R6-LWG N1043L + Y1044W + Q1047G (Homo sapiens) (UniProt Q14671).
T9 sequence: T1 sequence with C216L

In experiment [10] the target is T10, PUM1 PUF domain R6-NHR Y1044H + Q1047R (UniProt Q14671).
T10 sequence: T1 sequence with C216N, W217H, G220R

Experiment [11] concerns the target T11, PUM1 PUF domain R6-QRQ N1043Q + Y1044R (UniProt Q14671).
T11 sequence: T1 sequence with C216Q, W217R, G220Q

The target in experiment [12] is T12, PUM1 PUF domain R6-QWG N1043Q + Y1044W + Q1047G (Homo sapiens) (UniProt Q14671).
T12 sequence: T1 sequence with C216Q

In experiment [13] the target is T13, PUM1 PUF domain R6-RWA N1043R + Y1044W + Q1047A (Homo sapiens) (UniProt Q14671).
T13 sequence: T1 sequence with C216R, G220A

Experiment [14] deals with T14, PUM1 PUF domain R6-RWG N1043R + Y1044W + Q1047G (Homo sapiens) (UniProt Q14671).
T14 sequence: T1 sequence with C216R

The target of experiment [15] is T15, PUM1 PUF domain R6-RWL N1043R + Y1044W + Q1047L (Homo sapiens) (UniProt Q14671).
T15 sequence: T1 sequence with C216R, G220L

Experiment [16] concerns the target T16, PUM1 PUF domain R6-TWK N1043T + Y1044W + Q1047K (UniProt Q14671).
T16 sequence: T1 sequence with C216T, G220K

Experiment [17] deals with T17, PUM1 PUF domain R6-TWQ N1043T + Y1044W (UniProt Q14671).
T17 sequence: T1 sequence with C216T, G220Q

The target in experiment [18] is T18, PUM1 PUF domain R6-VWG N1043V + Y1044W + Q1047G (Homo sapiens) (UniProt Q14671).
T18 sequence: T1 sequence with C216V

In experiment [19] the target is T19, PUM1 PUF domain R6-WWG N1043W + Y1044W + Q1047G (Homo sapiens) (UniProt Q14671).
T19 sequence: T1 sequence with C216W

The target in experiment [20] is T20, PUM1 PUF domain R6-WWR N1043W + Y1044W + Q1047R (Homo sapiens) (UniProt Q14671).
T20 sequence: T1 sequence with C216W, G220R

Where a chain is given by its changes, count along the chain named. The list shows a part of the results. For some assays here: At the low end of the ranking the order means little.

For the sequence “GGCUAGAACUAGUGGAUCCCCCGGCGCCCGGCGGCUCGAGCCCGGGUAAGUGGAAAUAGUCUGCAUGCCGCCGGGCGCCAUGCCUGCAGGUCGACUCUAGAAAACAUG”, the binding signal (log2 enrichment (interaction score)) in experiment [1] is -5.21; in experiment [2], -5.25; in experiment [3] it was -4.45; in [4], -3.67; in experiment [5] it was -4.39; in experiment [6], -3.9. Moreover, the binding signal (log2 enrichment (interaction score)) in experiment [7] is -2.97; in experiment [8] it was -3.11; in experiment [9], -0.3; in experiment [10] it was -5.83; in experiment [11], -4.21; in [12], -1.28. The binding signal (log2 enrichment (interaction score)) is -1.63 in [13]; -0.05 in [14]; -0.19 in experiment [15]; -4.49 in experiment [16]; -4.2 in experiment [17]; -2.38 in [18]. For the same sequence, the values for the binding signal (log2 enrichment (interaction score)) in [19] and in experiment [20] were -0.87 and -0.9, respectively.
